Laboratory results published in the supplement of paper PMC10849652.
This is one part of the list.

Chains of the proteins cited; added tags and fusions are not shown. Lines headed by an entry give the natural chain unless they say otherwise; changes in a name come on top.
UniProt Q6UWU4: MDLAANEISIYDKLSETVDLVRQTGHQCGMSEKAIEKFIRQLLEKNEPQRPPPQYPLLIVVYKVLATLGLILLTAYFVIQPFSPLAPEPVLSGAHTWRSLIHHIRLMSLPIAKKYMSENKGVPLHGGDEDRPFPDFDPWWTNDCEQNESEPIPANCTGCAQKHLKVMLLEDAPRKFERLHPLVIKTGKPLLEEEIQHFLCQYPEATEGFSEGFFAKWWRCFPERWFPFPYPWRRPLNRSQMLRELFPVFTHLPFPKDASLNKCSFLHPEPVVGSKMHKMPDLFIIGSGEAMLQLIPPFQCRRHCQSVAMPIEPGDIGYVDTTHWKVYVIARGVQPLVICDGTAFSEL
UniProt Q5JPI3: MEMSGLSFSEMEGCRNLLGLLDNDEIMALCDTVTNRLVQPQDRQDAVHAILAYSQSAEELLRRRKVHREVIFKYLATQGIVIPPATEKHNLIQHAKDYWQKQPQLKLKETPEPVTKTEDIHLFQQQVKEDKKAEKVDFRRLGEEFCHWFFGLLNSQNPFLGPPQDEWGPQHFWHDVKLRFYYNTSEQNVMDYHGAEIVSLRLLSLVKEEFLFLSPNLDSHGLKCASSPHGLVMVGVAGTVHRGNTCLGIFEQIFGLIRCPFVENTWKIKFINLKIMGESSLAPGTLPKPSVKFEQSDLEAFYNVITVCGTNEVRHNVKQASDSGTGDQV
UniProt O43709: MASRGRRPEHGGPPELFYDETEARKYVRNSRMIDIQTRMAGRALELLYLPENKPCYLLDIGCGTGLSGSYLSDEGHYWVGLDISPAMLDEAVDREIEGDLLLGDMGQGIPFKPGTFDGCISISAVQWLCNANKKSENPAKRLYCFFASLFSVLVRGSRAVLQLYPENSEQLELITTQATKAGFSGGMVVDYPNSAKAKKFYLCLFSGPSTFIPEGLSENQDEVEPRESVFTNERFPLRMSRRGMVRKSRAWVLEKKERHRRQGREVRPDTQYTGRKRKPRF
UniProt Q96GQ5: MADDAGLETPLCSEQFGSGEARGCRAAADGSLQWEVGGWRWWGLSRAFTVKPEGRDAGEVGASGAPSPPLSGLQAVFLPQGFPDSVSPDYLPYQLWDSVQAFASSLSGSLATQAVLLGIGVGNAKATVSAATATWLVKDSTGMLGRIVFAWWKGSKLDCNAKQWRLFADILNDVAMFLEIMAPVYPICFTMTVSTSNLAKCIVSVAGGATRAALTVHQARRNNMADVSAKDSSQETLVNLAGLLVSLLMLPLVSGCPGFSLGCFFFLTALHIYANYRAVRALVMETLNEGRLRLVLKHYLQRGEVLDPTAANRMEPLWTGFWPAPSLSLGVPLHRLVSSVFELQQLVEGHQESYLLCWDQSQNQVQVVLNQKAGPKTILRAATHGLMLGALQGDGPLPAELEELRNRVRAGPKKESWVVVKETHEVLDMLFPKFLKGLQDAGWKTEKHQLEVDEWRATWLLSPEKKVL
UniProt O75155: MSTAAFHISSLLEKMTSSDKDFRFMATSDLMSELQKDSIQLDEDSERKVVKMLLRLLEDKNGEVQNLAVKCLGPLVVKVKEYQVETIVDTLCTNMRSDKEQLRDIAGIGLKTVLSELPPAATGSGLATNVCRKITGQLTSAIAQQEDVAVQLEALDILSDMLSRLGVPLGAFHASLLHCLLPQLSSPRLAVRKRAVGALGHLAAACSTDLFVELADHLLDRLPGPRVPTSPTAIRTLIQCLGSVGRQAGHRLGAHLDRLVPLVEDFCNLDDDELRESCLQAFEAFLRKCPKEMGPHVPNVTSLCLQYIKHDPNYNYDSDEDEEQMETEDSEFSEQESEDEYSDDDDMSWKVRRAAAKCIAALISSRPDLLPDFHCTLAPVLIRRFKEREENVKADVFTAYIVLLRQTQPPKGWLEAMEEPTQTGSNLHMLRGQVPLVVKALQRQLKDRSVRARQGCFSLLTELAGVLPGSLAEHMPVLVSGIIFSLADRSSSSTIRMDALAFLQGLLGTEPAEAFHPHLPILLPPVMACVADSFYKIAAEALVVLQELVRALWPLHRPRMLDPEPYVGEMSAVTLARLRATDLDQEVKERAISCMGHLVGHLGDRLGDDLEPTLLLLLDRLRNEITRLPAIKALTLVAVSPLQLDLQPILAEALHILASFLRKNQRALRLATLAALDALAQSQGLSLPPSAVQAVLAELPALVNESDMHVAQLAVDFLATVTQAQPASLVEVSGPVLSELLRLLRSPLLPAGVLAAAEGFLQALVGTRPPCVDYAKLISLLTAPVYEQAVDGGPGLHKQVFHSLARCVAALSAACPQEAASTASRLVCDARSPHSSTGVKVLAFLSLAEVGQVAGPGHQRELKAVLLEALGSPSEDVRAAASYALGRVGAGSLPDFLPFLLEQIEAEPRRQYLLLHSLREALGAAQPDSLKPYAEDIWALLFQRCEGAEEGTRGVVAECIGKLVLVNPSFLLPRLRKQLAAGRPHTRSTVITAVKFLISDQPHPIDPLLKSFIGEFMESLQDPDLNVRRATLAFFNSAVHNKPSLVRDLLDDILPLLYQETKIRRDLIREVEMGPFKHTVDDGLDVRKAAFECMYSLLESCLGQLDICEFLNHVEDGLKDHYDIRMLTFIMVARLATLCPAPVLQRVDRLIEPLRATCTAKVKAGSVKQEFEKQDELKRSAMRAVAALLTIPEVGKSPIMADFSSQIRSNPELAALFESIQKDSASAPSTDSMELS
UniProt Q9H8G2: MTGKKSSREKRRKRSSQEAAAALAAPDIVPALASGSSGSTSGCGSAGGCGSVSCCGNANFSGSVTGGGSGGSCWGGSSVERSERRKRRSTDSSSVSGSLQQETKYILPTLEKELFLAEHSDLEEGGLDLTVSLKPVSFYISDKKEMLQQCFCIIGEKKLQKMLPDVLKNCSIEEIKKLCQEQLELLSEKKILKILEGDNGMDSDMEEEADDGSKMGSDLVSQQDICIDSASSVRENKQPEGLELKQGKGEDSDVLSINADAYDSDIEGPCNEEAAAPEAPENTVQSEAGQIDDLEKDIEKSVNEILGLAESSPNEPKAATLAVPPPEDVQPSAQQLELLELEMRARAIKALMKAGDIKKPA
UniProt Q96EU7: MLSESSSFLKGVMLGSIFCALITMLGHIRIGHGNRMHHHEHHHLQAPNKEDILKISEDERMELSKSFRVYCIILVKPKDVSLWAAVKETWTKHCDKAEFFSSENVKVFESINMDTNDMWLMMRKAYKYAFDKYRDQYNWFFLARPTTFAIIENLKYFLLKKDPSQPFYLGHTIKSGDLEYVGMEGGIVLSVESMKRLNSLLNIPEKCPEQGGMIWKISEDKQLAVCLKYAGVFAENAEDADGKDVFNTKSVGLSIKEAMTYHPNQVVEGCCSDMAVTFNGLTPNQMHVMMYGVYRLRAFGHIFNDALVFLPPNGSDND
UniProt Q8N1Q1: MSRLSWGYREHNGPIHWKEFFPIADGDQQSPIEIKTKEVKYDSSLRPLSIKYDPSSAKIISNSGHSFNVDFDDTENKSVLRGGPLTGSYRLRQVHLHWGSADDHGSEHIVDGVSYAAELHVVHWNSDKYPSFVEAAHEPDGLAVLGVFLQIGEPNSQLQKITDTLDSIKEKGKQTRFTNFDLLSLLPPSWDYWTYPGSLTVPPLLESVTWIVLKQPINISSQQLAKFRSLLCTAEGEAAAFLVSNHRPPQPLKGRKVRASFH
UniProt Q9H3H3: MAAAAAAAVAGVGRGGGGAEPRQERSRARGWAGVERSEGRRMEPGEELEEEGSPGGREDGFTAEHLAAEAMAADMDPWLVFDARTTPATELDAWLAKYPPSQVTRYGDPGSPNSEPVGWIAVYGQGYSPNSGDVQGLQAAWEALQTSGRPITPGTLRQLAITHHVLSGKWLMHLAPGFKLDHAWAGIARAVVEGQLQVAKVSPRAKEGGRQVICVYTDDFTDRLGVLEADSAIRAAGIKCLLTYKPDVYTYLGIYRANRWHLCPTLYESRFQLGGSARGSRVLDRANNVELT
UniProt P27797, whole entry, looked up: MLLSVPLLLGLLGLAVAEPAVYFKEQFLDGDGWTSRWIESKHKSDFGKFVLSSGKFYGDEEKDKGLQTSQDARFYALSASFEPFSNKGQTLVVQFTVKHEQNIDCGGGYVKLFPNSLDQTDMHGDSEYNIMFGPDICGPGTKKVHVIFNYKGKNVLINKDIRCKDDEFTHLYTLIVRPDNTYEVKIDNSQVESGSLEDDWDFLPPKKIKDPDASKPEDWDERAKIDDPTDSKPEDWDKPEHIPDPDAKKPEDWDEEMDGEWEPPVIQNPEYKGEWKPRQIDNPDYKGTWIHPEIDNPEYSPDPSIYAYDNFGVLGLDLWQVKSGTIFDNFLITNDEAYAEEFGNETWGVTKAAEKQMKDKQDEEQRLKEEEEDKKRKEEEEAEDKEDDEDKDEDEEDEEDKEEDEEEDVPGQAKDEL
UniProt Q96RR4, whole entry, looked up: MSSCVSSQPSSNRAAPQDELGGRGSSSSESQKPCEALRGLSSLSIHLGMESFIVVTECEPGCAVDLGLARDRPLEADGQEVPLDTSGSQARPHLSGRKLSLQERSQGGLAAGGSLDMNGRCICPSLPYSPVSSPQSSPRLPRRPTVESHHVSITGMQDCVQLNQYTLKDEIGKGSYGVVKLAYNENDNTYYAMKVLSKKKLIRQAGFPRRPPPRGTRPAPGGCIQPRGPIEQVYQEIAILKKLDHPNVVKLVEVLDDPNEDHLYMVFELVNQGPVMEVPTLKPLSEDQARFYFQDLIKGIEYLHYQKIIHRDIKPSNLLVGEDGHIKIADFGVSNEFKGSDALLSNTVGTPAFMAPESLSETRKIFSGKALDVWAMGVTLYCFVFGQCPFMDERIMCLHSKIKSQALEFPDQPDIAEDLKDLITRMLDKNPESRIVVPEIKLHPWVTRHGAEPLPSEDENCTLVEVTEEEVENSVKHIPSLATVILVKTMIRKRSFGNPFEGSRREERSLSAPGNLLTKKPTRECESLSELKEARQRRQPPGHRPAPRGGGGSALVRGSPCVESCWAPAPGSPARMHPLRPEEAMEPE
UniProt O14523: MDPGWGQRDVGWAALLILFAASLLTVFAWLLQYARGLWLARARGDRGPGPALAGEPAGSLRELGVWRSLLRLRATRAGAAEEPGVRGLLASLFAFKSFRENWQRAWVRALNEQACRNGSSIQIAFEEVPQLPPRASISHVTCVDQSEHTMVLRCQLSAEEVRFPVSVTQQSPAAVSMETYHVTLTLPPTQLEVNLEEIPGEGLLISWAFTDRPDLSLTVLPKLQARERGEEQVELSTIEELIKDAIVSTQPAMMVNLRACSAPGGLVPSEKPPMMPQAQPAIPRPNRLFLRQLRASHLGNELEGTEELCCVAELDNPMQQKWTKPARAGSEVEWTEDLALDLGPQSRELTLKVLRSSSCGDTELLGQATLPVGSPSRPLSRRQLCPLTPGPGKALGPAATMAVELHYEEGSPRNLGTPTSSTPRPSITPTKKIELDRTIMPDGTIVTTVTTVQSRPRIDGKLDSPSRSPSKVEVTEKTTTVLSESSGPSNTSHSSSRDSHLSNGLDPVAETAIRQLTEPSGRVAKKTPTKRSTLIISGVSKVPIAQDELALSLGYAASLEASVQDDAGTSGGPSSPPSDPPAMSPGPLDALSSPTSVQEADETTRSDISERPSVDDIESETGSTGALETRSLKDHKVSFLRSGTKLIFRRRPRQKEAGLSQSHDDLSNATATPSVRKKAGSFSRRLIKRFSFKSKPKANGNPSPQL
UniProt Q01518, whole entry, looked up: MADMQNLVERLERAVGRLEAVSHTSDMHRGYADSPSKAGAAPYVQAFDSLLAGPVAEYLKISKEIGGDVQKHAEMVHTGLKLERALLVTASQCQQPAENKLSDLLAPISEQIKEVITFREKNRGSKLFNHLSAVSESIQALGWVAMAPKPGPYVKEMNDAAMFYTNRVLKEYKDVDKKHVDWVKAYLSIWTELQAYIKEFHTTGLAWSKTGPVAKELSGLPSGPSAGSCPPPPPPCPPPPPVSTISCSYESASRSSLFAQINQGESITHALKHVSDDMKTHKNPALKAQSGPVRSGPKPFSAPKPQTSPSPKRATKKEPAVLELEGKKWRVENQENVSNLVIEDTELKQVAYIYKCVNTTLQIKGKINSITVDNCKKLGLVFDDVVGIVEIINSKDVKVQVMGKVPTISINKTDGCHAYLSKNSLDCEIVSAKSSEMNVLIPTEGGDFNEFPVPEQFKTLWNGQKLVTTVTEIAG
UniProt Q5BKX5: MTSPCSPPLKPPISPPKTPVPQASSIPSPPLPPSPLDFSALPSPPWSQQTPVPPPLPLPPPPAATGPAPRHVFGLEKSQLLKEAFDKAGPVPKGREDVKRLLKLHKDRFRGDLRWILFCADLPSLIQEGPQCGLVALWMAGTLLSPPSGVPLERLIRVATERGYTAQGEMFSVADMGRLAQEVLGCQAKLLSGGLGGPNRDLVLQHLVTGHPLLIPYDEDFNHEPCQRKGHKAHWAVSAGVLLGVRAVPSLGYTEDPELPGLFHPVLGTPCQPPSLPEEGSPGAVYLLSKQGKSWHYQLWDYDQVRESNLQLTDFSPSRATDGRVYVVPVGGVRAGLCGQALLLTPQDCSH

Columns and labels:
Test in all cases: log2 fold change, soluble protein after heating vs DMSO (PISA); higher = thermal stabilisation; K562 lysate, 10 uM; active = over 0.2 and 3.5 SD of the protein, either way, in both replicates (recomputed)
alvocidib = compound: CN1CC[C@H](c2c(O)cc(O)c3c(=O)cc(-c4ccccc4Cl)oc23)[C@H](O)C1 [alvocidib]
Procedure, shortened: (§1)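 Dounce homogenisation of K562 pellets in PBS pH 7.4 with 1 mM MgCl2 produced a crude extract, used at 1 mg/mL protein. Exposure to 10 μM compound lasted 30 min, and aliquots were then heated for 3 min across 48°C-58°C, pooled and brought to 0.5% NP-40 at 4°C. The supernatant after 21,000xg for 90 min was quantified by TMTpro 16plex LC-MS/MS with channel sums equalised. Duplicate values are given as log-two fold change in thermal stability relative to solvent controls.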

Tubastatin A = compound: CN1CCc2c(c3ccccc3n2Cc2ccc(C(=O)NO)cc2)C1 [Tubastatin A]
Procedure, shortened: as §1

[1] = compound: CNC(=O)C1=CC=CC=C1NC2=NC(=NC=C2Cl)NC3=C(C=C(C=C3)N4CCOCC4)OC
Procedure, shortened: as §1

defactinib = compound: CNC(=O)c1ccc(Nc2ncc(C(F)(F)F)c(NCc3nccnc3N(C)S(C)(=O)=O)n2)cc1 [defactinib]
Procedure, shortened: as §1

[2] = compound: CNc1nc(-c2ccc3c(N)n[nH]c3c2)cc(N2C[C@@H](C(=O)NC3CCCCC3)CC[C@H]2C)n1
Procedure, shortened: as §1

encorafenib = compound: COC(=O)N[C@@H](C)CNc1nccc(-c2cn(C(C)C)nc2-c2cc(Cl)cc(NS(C)(=O)=O)c2F)n1 [encorafenib]
Procedure, shortened: as §1

[3] = compound: COC(=O)[C@H](CCSC)NC(=O)C1=C(C=C(C=C1)NC[C@H](CS)N)C2=CC=CC=C2
Procedure, shortened: as §1

alisertib = compound: COc1cc(Nc2ncc3c(n2)-c2ccc(Cl)cc2C(c2c(F)cccc2OC)=NC3)ccc1C(=O)O [alisertib]
Procedure, shortened: as §1

[4] = compound: COc1cc2nc(-c3cc(F)ccc3O)nc(N[C@@H]3CNC[C@H]3C(C)(C)O)c2cc1OC
Procedure, shortened: as §1

gefitinib = compound: COc1cc2ncnc(Nc3ccc(F)c(Cl)c3)c2cc1OCCCN1CCOCC1 [gefitinib]
Procedure, shortened: as §1

lapatinib = compound: CS(=O)(=O)CCNCc1ccc(-c2ccc3ncnc(Nc4ccc(OCc5cccc(F)c5)c(Cl)c4)c3c2)o1 [lapatinib]
Procedure, shortened: as §1

pictilisib = compound: CS(=O)(=O)N1CCN(Cc2cc3nc(-c4cccc5[nH]ncc45)nc(N4CCOCC4)c3s2)CC1 [pictilisib]
Procedure, shortened: as §1

crizotinib = compound: C[C@@H](Oc1cc(-c2cnn(C3CCNCC3)c2)cnc1N)c1c(Cl)ccc(F)c1Cl [crizotinib]
Procedure, shortened: as §1

[5] = compound: C[C@H](C1=CC=C(C=C1)C(=O)NC2=C3C=CNC3=NC=C2)N
Procedure, shortened: as §1

duvelisib = compound: C[C@H](Nc1ncnc2nc[nH]c12)c1cc2cccc(Cl)c2c(=O)n1-c1ccccc1 [duvelisib]
Procedure, shortened: as §1

gandotinib = compound: Cc1cc(Nc2cc(CN3CCOCC3)c3nc(C)c(Cc4ccc(Cl)cc4F)n3n2)n[nH]1 [gandotinib]
Procedure, shortened: as §1

tozasertib = compound: Cc1cc(Nc2cc(N3CCN(C)CC3)nc(Sc3ccc(NC(=O)C4CC4)cc3)n2)n[nH]1 [tozasertib]
Procedure, shortened: as §1

doramapimod = compound: Cc1ccc(-n2nc(C(C)(C)C)cc2NC(=O)Nc2ccc(OCCN3CCOCC3)c3ccccc23)cc1 [doramapimod]
Procedure, shortened: as §1

bafetinib = compound: Cc1ccc(NC(=O)c2ccc(CN3CC[C@H](N(C)C)C3)c(C(F)(F)F)c2)cc1Nc1nccc(-c2cncnc2)n1 [bafetinib]
Procedure, shortened: as §1

[6] = compound: Cc1cccc(CC(=O)N2CCc3c2ccc(-c2cn(C)c4ncnc(N)c24)c3F)n1
Procedure, shortened: as §1

Measured: log2 fold change

C6orf89 isoform 2 (UniProt Q6UWU4)
inactive: alvocidib 0.023 | Tubastatin A 0.002 | [1] 0.053 | defactinib 0.008 | [2] 0.121 | encorafenib 0.029 | [3] -0.15 | alisertib -0.061 | [4] -0.047 | gefitinib 0.035 | lapatinib -0.099 | pictilisib 0.046 | crizotinib 0.015 | [5] -0.011 | duvelisib 0 | gandotinib 0 | tozasertib 0.024 | doramapimod 0.009 | bafetinib -0.082 | [6] -0.01

C3orf38 (UniProt Q5JPI3)
inactive: alvocidib -0.076 | Tubastatin A 0.01 | [1] 0.05 | defactinib 0.038 | [2] 0.033 | encorafenib 0.03 | [3] -0.038 | alisertib -0.013 | [4] 0.05 | gefitinib -0.041 | lapatinib -0.002 | pictilisib -0.032 | crizotinib -0.077 | [5] 0.046 | duvelisib -0.022 | gandotinib -0.027 | tozasertib 0.028 | doramapimod -0.056 | bafetinib 0.008 | [6] 0.038

C20orf27 isoform 2 (UniProt Q9GZN8)
inactive: alvocidib 0.049 | Tubastatin A 0.034 | [1] 0.027 | defactinib -0.075 | [2] 0.094 | encorafenib -0.038 | [3] -0.008 | alisertib -0.016 | [4] 0.018 | gefitinib -0.082 | lapatinib -0.06 | pictilisib -0.024 | crizotinib -0.011 | [5] 0.006 | duvelisib -0.059 | gandotinib 0.015 | tozasertib -0.008 | doramapimod -0.042 | bafetinib 0.014 | [6] -0.114

BUD23 isoform 3 (UniProt O43709)
active: [5] -0.305
inactive: alvocidib -0.126 | Tubastatin A 0.14 | [1] 0.026 | defactinib -0.046 | [2] -0.052 | encorafenib -0.017 | [3] 0.036 | alisertib 0.082 | [4] 0.085 | gefitinib 0.054 | lapatinib 0.052 | pictilisib -0.017 | crizotinib 0.07 | duvelisib 0.025 | gandotinib 0.136 | tozasertib -0.073 | doramapimod -0.035 | bafetinib -0.088 | [6] 0.152

Quoted from the entries so far (three entries):
C6orf89 isoform 2 (UniProt Q6UWU4)
inactive: alvocidib 0.023 | Tubastatin A 0.002 | [1] 0.053 | defactinib 0.008 | [2] 0.121 | encorafenib 0.029 | [3] -0.15 | alisertib -0.061 | [4] -0.047 | gefitinib 0.035 | lapatinib -0.099 | pictilisib 0.046 | crizotinib 0.015 | [5] -0.011 | duvelisib 0 | gandotinib 0 | tozasertib 0.024 | doramapimod 0.009 | bafetinib -0.082 | [6] -0.01

C3orf38 (UniProt Q5JPI3)
inactive: alvocidib -0.076 | Tubastatin A 0.01 | [1] 0.05 | defactinib 0.038 | [2] 0.033 | encorafenib 0.03 | [3] -0.038 | alisertib -0.013 | [4] 0.05 | gefitinib -0.041 | lapatinib -0.002 | pictilisib -0.032 | crizotinib -0.077 | [5] 0.046 | duvelisib -0.022 | gandotinib -0.027 | tozasertib 0.028 | doramapimod -0.056 | bafetinib 0.008 | [6] 0.038

C20orf27 isoform 2 (UniProt Q9GZN8)
inactive: alvocidib 0.049 | Tubastatin A 0.034 | [1] 0.027 | defactinib -0.075 | [2] 0.094 | encorafenib -0.038 | [3] -0.008 | alisertib -0.016 | [4] 0.018 | gefitinib -0.082 | lapatinib -0.06 | pictilisib -0.024 | crizotinib -0.011 | [5] 0.006 | duvelisib -0.059 | gandotinib 0.015 | tozasertib -0.008 | doramapimod -0.042 | bafetinib 0.014 | [6] -0.114

Continued.

C16orf58 (UniProt Q96GQ5)
inactive: alvocidib 0 | Tubastatin A 0.174 | [1] -0.063 | defactinib 0.01 | [2] 0.025 | encorafenib 0.017 | [3] 0.018 | alisertib -0.005 | [4] -0.03 | gefitinib 0.016 | lapatinib -0.006 | pictilisib -0.035 | crizotinib -0.084 | [5] 0.034 | duvelisib 0.067 | gandotinib -0.114 | tozasertib 0.066 | doramapimod -0.011 | bafetinib -0.073 | [6] 0.122

CAND2 (UniProt O75155)
inactive: alvocidib -0.015 | Tubastatin A 0.102 | [1] 0.003 | defactinib -0.011 | [2] 0.007 | encorafenib 0.016 | [3] -0.085 | alisertib -0.001 | [4] 0.01 | gefitinib 0.02 | lapatinib -0.003 | pictilisib -0.003 | crizotinib -0.016 | [5] 0 | duvelisib 0.002 | gandotinib -0.043 | tozasertib 0.014 | doramapimod 0.004 | bafetinib 0 | [6] 0.035

CAAP1 (UniProt Q9H8G2)
inactive: alvocidib -0.025 | Tubastatin A -0.001 | [1] 0.038 | defactinib -0.019 | [2] 0.08 | encorafenib 0.075 | [3] -0.085 | alisertib -0.006 | [4] 0.101 | gefitinib -0.014 | lapatinib -0.034 | pictilisib 0.016 | crizotinib -0.038 | [5] -0.064 | duvelisib 0.085 | gandotinib 0.183 | tozasertib 0.001 | doramapimod 0.091 | bafetinib -0.056 | [6] 0.025

C1GALT1C1 (UniProt Q96EU7)
inactive: alvocidib -0.048 | Tubastatin A 0.078 | [1] 0 | defactinib -0.027 | [2] -0.017 | encorafenib -0.004 | [3] 0.006 | alisertib 0.043 | [4] -0.076 | gefitinib -0.023 | lapatinib 0.085 | pictilisib 0.046 | crizotinib -0.021 | [5] 0.138 | duvelisib -0.019 | gandotinib 0.014 | tozasertib -0.007 | doramapimod 0.046 | bafetinib 0.302 | [6] -0.037

CA13 (UniProt Q8N1Q1)
inactive: alvocidib 0.026 | Tubastatin A 0.045 | [1] 0.022 | defactinib -0.044 | [2] -0.023 | encorafenib -0.032 | [3] -0.017 | alisertib 0 | [4] 0.036 | gefitinib -0.069 | lapatinib -0.022 | pictilisib -0.017 | crizotinib 0.08 | [5] 0.013 | duvelisib 0.053 | gandotinib -0.004 | tozasertib 0.025 | doramapimod -0.046 | bafetinib -0.017 | [6] -0.015

C11orf68 isoform 3 (UniProt Q9H3H3)
inactive: alvocidib -0.045 | Tubastatin A 0.001 | [1] 0.016 | defactinib -0.031 | [2] 0.013 | encorafenib 0.006 | [3] -0.081 | alisertib 0.008 | [4] 0 | gefitinib 0.02 | lapatinib 0.021 | pictilisib 0.026 | crizotinib -0.032 | [5] -0.039 | duvelisib 0.014 | gandotinib 0.032 | tozasertib -0.003 | doramapimod 0.061 | bafetinib -0.02 | [6] 0.028

CALR (UniProt P27797)
inactive: alvocidib 0.042 | Tubastatin A 0 | [1] -0.011 | defactinib 0.002 | [2] -0.008 | encorafenib -0.024 | [3] -0.008 | alisertib -0.016 | [4] -0.007 | gefitinib -0.024 | lapatinib -0.004 | pictilisib 0.032 | crizotinib 0.035 | [5] 0.102 | duvelisib -0.005 | gandotinib -0.038 | tozasertib -0.014 | doramapimod -0.05 | bafetinib 0.047 | [6] -0.029

CAPZA2 (UniProt P47755)
inactive: alvocidib 0.036 | Tubastatin A 0.011 | [1] -0.009 | defactinib 0.006 | [2] 0.015 | encorafenib -0.03 | [3] -0.019 | alisertib -0.001 | [4] -0.011 | gefitinib 0.003 | lapatinib 0.001 | pictilisib -0.041 | crizotinib 0.001 | [5] 0.027 | duvelisib 0.009 | gandotinib -0.035 | tozasertib 0.015 | doramapimod 0 | bafetinib 0.043 | [6] -0.056

CAMKK2 (UniProt Q96RR4)
inactive: alvocidib -0.018 | Tubastatin A -0.123 | defactinib 0.059 | [2] -0.113 | encorafenib -0.013 | [3] 0.018 | alisertib -0.01 | [4] 0.019 | gefitinib 0.021 | lapatinib -0.018 | pictilisib 0.006 | crizotinib 0.108 | [5] 0.023 | duvelisib 0.058 | tozasertib -0.055 | doramapimod 0.031 | bafetinib 0.018 | [6] -0.056
active: [1] 0.277 | gandotinib 0.257

C2CD2L (UniProt O14523)
inactive: alvocidib 0.002 | Tubastatin A 0.011 | [1] -0.074 | defactinib 0.015 | [2] -0.062 | encorafenib 0.055 | [3] -0.221 | alisertib -0.036 | [4] -0.013 | gefitinib 0.016 | lapatinib -0.077 | pictilisib -0.062 | crizotinib -0.061 | [5] -0.052 | duvelisib -0.096 | gandotinib 0.016 | tozasertib 0.012 | doramapimod 0.004 | bafetinib -0.001 | [6] 0.051

CAP1 (UniProt Q01518)
inactive: alvocidib 0.02 | Tubastatin A 0.042 | [1] -0.019 | defactinib 0 | [2] 0.085 | encorafenib -0.029 | [3] 0.02 | alisertib 0 | [4] -0.003 | gefitinib -0.038 | lapatinib -0.027 | pictilisib 0.011 | crizotinib -0.009 | [5] -0.005 | duvelisib -0.023 | gandotinib -0.004 | tozasertib -0.04 | doramapimod -0.001 | bafetinib 0.017 | [6] -0.029

C19orf54 (UniProt Q5BKX5)
inactive: alvocidib -0.032 | Tubastatin A 0.004 | [1] 0.048 | defactinib -0.039 | [2] 0.023 | encorafenib 0.024 | [3] 0.151 | alisertib -0.099 | [4] 0.069 | gefitinib 0.08 | lapatinib -0.003 | pictilisib -0.089 | crizotinib -0.019 | [5] -0.011 | duvelisib -0.076 | gandotinib -0.046 | tozasertib -0.008 | doramapimod -0.036 | bafetinib -0.01 | [6] 0.027
